Results reported in the supplement of paper PMC8728848.
The other results are listed elsewhere or left out.

What was measured:
Assay in all cases: glycan array binding signal (z-score within array); higher = stronger binding
Settings in all cases: glycan notation: IUPAC condensed, linker removed
[1] = molecular target: Fuc(a1-2)[GalNAc(a1-3)]Gal(b1-3)GlcNAc(b1-3)GalNAc
Method in brief: (§1)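 Arrays were curated from the Consortium for Functional Glycomics database, 3228 in total, and kept only where the protein sequence was available. Binding is expressed as a within-array Z-score. This score was averaged across arrays of the same protein sequence at different concentrations or buffers and across linkers, and negative values can be read as non-binding.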

[2] = molecular target: Fuc(a1-2)[GalNAc(a1-3)]Gal(b1-3)GlcNAc(b1-6)GalNAc
Method in brief: as §1

[3] = molecular target: Fuc(a1-2)[GalNAc(a1-3)]Gal(b1-4)Glc
Method in brief: as §1

[4] = molecular target: Fuc(a1-2)[GalNAc(a1-3)]Gal(b1-4)GlcNAc
Method in brief: as §1

[5] = molecular target: Fuc(a1-2)[GalNAc(a1-3)]Gal(b1-4)GlcNAc(b1-2)Man
Method in brief: as §1

[6] = molecular target: Fuc(a1-2)[GalNAc(a1-3)]Gal(b1-4)GlcNAc(b1-2)Man(a1-3)[Fuc(a1-2)[GalNAc(a1-3)]Gal(b1-4)GlcNAc(b1-2)Man(a1-6)]Man(b1-4)GlcNAc(b1-4)GlcNAc
Method in brief: as §1

[7] = molecular target: Fuc(a1-2)[GalNAc(a1-3)]Gal(b1-4)GlcNAc(b1-2)Man(a1-3)[Fuc(a1-2)[GalNAc(a1-3)]Gal(b1-4)GlcNAc(b1-2)Man(a1-6)]Man(b1-4)GlcNAc(b1-4)[Fuc(a1-6)]GlcNAc
Method in brief: as §1

[8] = molecular target: Fuc(a1-2)[GalNAc(a1-3)]Gal(b1-4)GlcNAc(b1-3)Gal(b1-4)GlcNAc
Method in brief: as §1

[9] = molecular target: Fuc(a1-2)[GalNAc(a1-3)]Gal(b1-4)GlcNAc(b1-3)Gal(b1-4)GlcNAc(b1-3)Gal(b1-4)GlcNAc
Method in brief: as §1

[10] = molecular target: Fuc(a1-2)[GalNAc(a1-3)]Gal(b1-4)GlcNAc(b1-3)GalNAc
Method in brief: as §1

[11] = molecular target: Fuc(a1-2)[GalNAc(a1-3)]Gal(b1-4)GlcNAc(b1-3)[Fuc(a1-2)[GalNAc(a1-3)]Gal(b1-4)GlcNAc(b1-6)]GalNAc
Method in brief: as §1

[12] = molecular target: Fuc(a1-2)[GalNAc(a1-3)]Gal(b1-4)GlcNAc(b1-6)GalNAc
Method in brief: as §1

[13] = molecular target: Fuc(a1-2)[GalNAc(a1-3)]Gal(b1-4)[Fuc(a1-3)]GlcNAc
Method in brief: as §1

[14] = molecular target: Fuc(a1-2)[GalNAc(a1-3)]Gal(b1-4)[Fuc(a1-3)]GlcNAc(b1-3)GalNAc
Method in brief: as §1

[15] = molecular target: Fuc(a1-2)[GalNAc(a1-4)]Gal(b1-4)GlcNAc
Method in brief: as §1

[16] = molecular target: Fuc(a1-2)[GalNAc(b1-3)]Gal
Method in brief: as §1

Fuc(a1-3)GlcNAc = molecular target: Fuc(a1-3)GlcNAc
Method in brief: as §1

[17] = molecular target: Fuc(a1-3)[Gal(b1-4)]Glc6S
Method in brief: as §1

[18] = molecular target: Fuc(a1-3)[Gal(b1-4)]GlcNAc
Method in brief: as §1

[19] = molecular target: Fuc(a1-3)[Gal(b1-4)]GlcNAc(b1-2)Man
Method in brief: as §1

[20] = molecular target: Fuc(a1-3)[Gal(b1-4)]GlcNAc(b1-2)Man(a1-3)[Fuc(a1-3)[Gal(b1-4)]GlcNAc(b1-2)Man(a1-6)]Man(b1-4)GlcNAc(b1-4)GlcNAc
Method in brief: as §1

[21] = molecular target: Fuc(a1-3)[Gal(b1-4)]GlcNAc(b1-2)Man(a1-3)[Fuc(a1-3)[Gal(b1-4)]GlcNAc(b1-2)Man(a1-6)]Man(b1-4)GlcNAc(b1-4)[Fuc(a1-6)]GlcNAc
Method in brief: as §1

[22] = molecular target: Fuc(a1-3)[Gal(b1-4)]GlcNAc(b1-3)Gal(b1-3)[Fuc(a1-4)]GlcNAc
Method in brief: as §1

[23] = molecular target: Fuc(a1-3)[Gal(b1-4)]GlcNAc(b1-3)Gal(b1-4)[Fuc(a1-3)]GlcNAc
Method in brief: as §1

[24] = molecular target: Fuc(a1-3)[Gal(b1-4)]GlcNAc(b1-3)Gal(b1-4)[Fuc(a1-3)]GlcNAc(b1-3)Gal(b1-4)[Fuc(a1-3)]GlcNAc
Method in brief: as §1

[25] = molecular target: Fuc(a1-3)[Gal(b1-4)]GlcNAc(b1-3)GalNAc
Method in brief: as §1

[26] = molecular target: Fuc(a1-3)[Gal(b1-4)]GlcNAc(b1-6)GalNAc
Method in brief: as §1

[27] = molecular target: Fuc(a1-3)[Gal(b1-4)]GlcNAc(b1-6)[Gal(b1-3)GlcNAc(b1-3)]Gal(b1-4)Glc
Method in brief: as §1

[28] = molecular target: Fuc(a1-3)[Gal(b1-4)]GlcNAc6S
Method in brief: as §1

[29] = molecular target: Fuc(a1-3)[Gal3S(b1-4)]Glc
Method in brief: as §1

[30] = molecular target: Fuc(a1-3)[Gal3S(b1-4)]GlcNAc
Method in brief: as §1

[31] = molecular target: Fuc(a1-3)[Gal3S(b1-4)]GlcNAc6S
Method in brief: as §1

[32] = molecular target: Fuc(a1-3)[GalNAc(b1-4)]GlcNAc
Method in brief: as §1

[33] = molecular target: Fuc(a1-3)[GalNAc(b1-4)]GlcNAc6S
Method in brief: as §1

Fuc(a1-4)GlcNAc = molecular target: Fuc(a1-4)GlcNAc
Method in brief: as §1

Fuc(b1-3)GlcNAc = molecular target: Fuc(b1-3)GlcNAc
Method in brief: as §1

Gal(a1-2)Gal = molecular target: Gal(a1-2)Gal
Method in brief: as §1

B1: SP15308C-bot-338-23-338 (Bacteroides ovatus) (protein)
chain: DEWTDEQFKQLISFKTQPGGWGVTDVHVRYANSAKYTYNLPVLVSGSTDNTDDRLVSFSLRDDTLDILNFEKFGNRPELYFRELPQKYYSFPKELTIPAGQSHALLPIEFSLDGLDDSQKWALPLKVCEDANGTYAVNPRKYYRTAVLRPILFNEFSGRFSGSSLLGTMAGESDIKFSSTEIKLNVVTDSIVFFYAGQRTEDYEDRINYKVFLQFTGDKVDSKKDLYKMKIWAENEKLKFNSYSTPTYKVSSEMDATKTYLKHTYIVISDIDFDFVDYTSVPNYEIEYNMKGGLSVSRDLDTRKPDEDQGSDSKWW
B1 was tested, and the “glycan array binding signal (z-score)” value [1] was -0.104, the “glycan array binding signal (z-score)” value [2] was -0.438 and the “glycan array binding signal (z-score)” value [3] was -0.504. For the same binder, the “glycan array binding signal (z-score)” value [4] was -0.377, the “glycan array binding signal (z-score)” value [5] was -0.097 and the “glycan array binding signal (z-score)” value [6] was 0.507. For the same binder, the “glycan array binding signal (z-score)” value [7] was -0.033, the “glycan array binding signal (z-score)” value [8] was -0.123 and the “glycan array binding signal (z-score)” value [9] was -0.548. For the same binder, the “glycan array binding signal (z-score)” value [10] was 0.127, the “glycan array binding signal (z-score)” value [11] was -0.529 and the “glycan array binding signal (z-score)” value [12] was -0.332. The “glycan array binding signal (z-score)” value [13] was 0.332, the “glycan array binding signal (z-score)” value [14] was 1.93 and the “glycan array binding signal (z-score)” value [15] was -0.615. For the same binder, the “glycan array binding signal (z-score)” value [16] was -0.647, the “glycan array binding signal (z-score)” value (Fuc(a1-3)GlcNAc) was -0.719 and the “glycan array binding signal (z-score)” value [17] was -0.262. For the same binder, the “glycan array binding signal (z-score)” value [18] was -0.26, the “glycan array binding signal (z-score)” value [19] was -0.422 and the “glycan array binding signal (z-score)” value [20] was -0.728. The “glycan array binding signal (z-score)” value [21] was 2.11, the “glycan array binding signal (z-score)” value [22] was 0.329 and the “glycan array binding signal (z-score)” value [23] was -0.234. For the same binder, the “glycan array binding signal (z-score)” value [24] was -0.366, the “glycan array binding signal (z-score)” value [25] was -0.206 and the “glycan array binding signal (z-score)” value [26] was 0.876. The “glycan array binding signal (z-score)” value [27] was -0.143, the “glycan array binding signal (z-score)” value [28] was -0.613 and the “glycan array binding signal (z-score)” value [29] was -0.572. For the same binder, the “glycan array binding signal (z-score)” value [30] was 0.145, the “glycan array binding signal (z-score)” value [31] was 0.261 and the “glycan array binding signal (z-score)” value [32] was 0.291. For the same binder, the “glycan array binding signal (z-score)” value [33] was -0.31, the “glycan array binding signal (z-score)” value (Fuc(a1-4)GlcNAc) was 2.58 and the “glycan array binding signal (z-score)” value (Fuc(b1-3)GlcNAc) was -0.386. For the same binder, the “glycan array binding signal (z-score)” value (Gal(a1-2)Gal) was -0.439.
